Experimental data published in patent US6743817B2, “Substituted fused pyrroleimines and pyrazoleimines” (Neurogen Corporation, priority 2000, dated 2004).
pKi: −log10 of the molar value. Some entries share one result that the patent states for a list of compounds. For at least one compound, name, drawing or mass did not settle the structure.

molecular target: benzodiazepine site of the GABAA receptor; experiment: GABAA binding assay (3H-Ro15-1788 displacement); details: Rat cortical tissue homogenate; radioligand 0.5 nM 3H-Ro15-1788 [3H-Flumazenil]; 30 min at 4° C.; Cheng-Prussof equation

Structure (SMILES)	pKi
CCCNc1ccc(NC(=O)c2n[nH]c3c2C(=NOC)CCC3)nn1 [Compound 24, 4-Methoxylimino-4,5,6,7-tetrahydro-1H-indazole-3-carboxylic acid (6-propylamino-pyridazin-3-yl)-amide]	> 6.00
CCOCCOc1ccc(NC(=O)c2n[nH]c3c2C(=NOCC)CCC3)cn1 [Compound 23, 4-Ethoxyimino-4,5,6,7-tetrahydro-1H-indazole-3-carboxylic acid [6-(2-ethoxy-ethoxy)-pyridin-3-yl]-amide]	> 6.00
CN(C)CCCOc1ccc(NC(=O)c2n[nH]c3c2C(=NO)CCC3)cn1 [Compound 19, 4-Hydroxyimino-4,5,6,7-tetrahydro-1H-indazole-3-carboxylic acid [6-(3-dimethylamino-propoxy)-pyridin-3-yl]-amide]	> 6.00
CCN(CC)CCCOc1ccc(NC(=O)c2n[nH]c3c2C(=NOC)CCC3)cn1 [Compound 28, 4-Methoxyimino-4,5,6,7-tetrahydro-1H-indazole-3-carboxylic acid [6-(3-diethylamino-propoxy)-pyridin-3-yl]-amide]	> 6.00
CON=C1CCCc2[nH]nc(C(=O)Nc3cccc(OCCN(C)C)n3)c21 [Compound 31, 4-Methoxyimino-4,5,6,7-tetrahydro-1H-indazole-3-carboxylic acid [6-(3-dimethylamino-ethoxy)-pyridin-2-yl]-amide]	> 6.00
CON=C1CCCc2[nH]nc(C(=O)Nc3ccc(OCCN4CCOCC4)c(F)c3)c21 [Compound 14, 4-Methoxyimino-4,5,6,7-tetrahydro-1H-indazole-3-carboxylic acid [4-(2-morpholin-4-yl-ethoxy)-3-fluorophenyl]-amide]	> 6.00
CCON=C1CCCc2[nH]nc(C(=O)Nc3ccc(OCCCN(C)C)nc3)c21 [Compound 21, 4-Ethoxyimino-4,5,6,7-tetrahydro-1H-indazole-3-carboxylic acid [6-(3-dimethylamino-propoxy)-pyridin-3-yl]-amide]	> 6.00
CCCNCCOc1ccc(NC(=O)c2n[nH]c3c2C(=NOCC)CCC3)cc1F [Compound 17, 4-Ethoxyimino-4,5,6,7-tetrahydro-1H-indazole-3-carboxylic acid [4-(2-propylamino-ethoxy)-3-fluoro-phenyl]-amide]	> 6.00
CCCNCCOc1ccc(NC(=O)c2n[nH]c3c2C(=NOCC)CCC3)cn1 [Compound 13, 4-Ethoxyimino-4,5,6,7-tetrahydro-1H-indazole-3-carboxylic acid [6-(2-propylamino-ethoxy)-pyridin-3-yl]-amide]	> 6.00
CON=C1CCCc2[nH]nc(C(=O)Nc3ccc(OCCCN(C)C)nc3)c21 [Compound 20, 4-Methoxyimino-4,5,6,7-tetrahydro-1H-indazole-3-carboxylic acid [6-(3-dimethylamino-propoxy)-pyridin-3-yl]-amide]	> 6.00
CCOCCOc1ccc(NC(=O)c2n[nH]c3c2C(=NOC)CCC3)cn1 [Compound 22, 4-Methoxyimino-4,5,6,7-tetrahydro-1H-indazole-3-carboxylic acid [6-(2-ethoxy-ethoxy)-pyridin-3-yl]-amide]	> 6.00
CCCNCCOc1ccc(NC(=O)c2n[nH]c3c2C(=NOC)CCC3)cc1F [Compound 16, 4-Methoxyimino-4,5,6,7-tetrahydro-1H-indazole-3-carboxylic acid [4-(2-propylamino-ethoxy)-3-fluoro-phenyl]-amide]	> 6.00
CCCNc1ccc(NC(=O)c2n[nH]c3c2C(=NOCC)CCC3)nn1 [Compound 25, 4-Ethoxylimino-4,5,6,7-tetrahydro-1H-indazole-3-carboxylic acid (6-propylamino-pyridazin-3-yl) amide]	> 6.00
CCON=C1CCCc2[nH]nc(C(=O)Nc3cccc(OCCN(C)C)n3)c21 [Compound 26, 4-Ethoxyimino-4,5,6,7-tetrahydro-1H-indazole-3-carboxylic acid [6-(2-dimethylamino-ethoxy)-pyridin-2-yl]-amide]	> 6.00
CCON=C1CCCc2[nH]nc(C(=O)Nc3ccc(OCCN4CCOCC4)c(F)c3)c21 [Compound 15, 4-Ethoxyimino-4,5,6,7-tetrahydro-1H-indazole-3-carboxylic acid [4-(2-morpholin-4-yl-ethoxy)-3-fluorophenyl]-amide]	> 6.00
CCON=C1CCCc2[nH]nc(C(=O)Nc3ccc(OCCCN(CC)CC)nc3)c21 [Compound 29, 4-Ethoxyimino-4,5,6,7-tetrahydro-1H-indazole-3-carboxylic acid [6-(3-diethylamino-propoxy)-pyridin-3-yl]-amide]	> 6.00
CCON=C1CCCc2[nH]nc(C(=O)Nc3ccc(OCCN(C)C)cc3)c21 [Compound 18, 4-Ethoxyimino-4,5,6,7-tetrahydro-1H-indazole-3-carboxylic acid [4-(2-dimethylamino-ethoxy)-phenyl]-amide]	> 6.00
CCN(CC)CCCOc1ccc(NC(=O)c2n[nH]c3c2C(=NO)CCC3)cn1 [Compound 30, 4-Hydroxyimino-4,5,6,7-tetrahydro-1H-indazole-3-carboxylic acid [6-(3-diethylamino-propoxy)-pyridin-3-yl]-amide]	> 6.00
CCON=C1CCCc2[nH]nc(C(=O)Nc3ccc(OC)c(F)c3)c21 [Compound 11, 4-Ethoxyimino-4,5,6,7-tetrahydro-1H-indazole-3-carboxylic acid (3-fluoro-4-methoxy-phenyl)-amide]	> 6.00
CON=C1CCCc2[nH]nc(C(=O)Nc3cccc(OCCCN(C)C)n3)c21 [Compound 32, 4-Methoxyimino-4,5,6,7-tetrahydro-1H-indazole-3-carboxylic acid [6-(3-dimethylamino-propoxy)-pyridin-2-yl]-amide]	> 6.00
CCCNCCOc1ccc(NC(=O)c2n[nH]c3c2C(=NOC)CCC3)cn1 [Compound 12, 4-Methoxyimino-4,5,6,7-tetrahydro-1H-indazole-3-carboxylic acid [6-(2-propylamino-ethoxy)-pyridin-3-yl]-amide]	> 6.00
CCON=C1CCCc2[nH]nc(C(=O)Nc3cccc(OCCCN(C)C)n3)c21 [Compound 27, 4-Ethoxyimino-4,5,6,7-tetrahydro-1H-indazole-3-carboxylic acid [6-(3-dimethylamino-propoxy)-pyridin-2-yl]-amide]	> 6.00
